# In article PMC11822115:
# Amino acid sequences for entries named in this document (tags omitted). Residues count along the entry.
# UniProt P21860, residues 20-643: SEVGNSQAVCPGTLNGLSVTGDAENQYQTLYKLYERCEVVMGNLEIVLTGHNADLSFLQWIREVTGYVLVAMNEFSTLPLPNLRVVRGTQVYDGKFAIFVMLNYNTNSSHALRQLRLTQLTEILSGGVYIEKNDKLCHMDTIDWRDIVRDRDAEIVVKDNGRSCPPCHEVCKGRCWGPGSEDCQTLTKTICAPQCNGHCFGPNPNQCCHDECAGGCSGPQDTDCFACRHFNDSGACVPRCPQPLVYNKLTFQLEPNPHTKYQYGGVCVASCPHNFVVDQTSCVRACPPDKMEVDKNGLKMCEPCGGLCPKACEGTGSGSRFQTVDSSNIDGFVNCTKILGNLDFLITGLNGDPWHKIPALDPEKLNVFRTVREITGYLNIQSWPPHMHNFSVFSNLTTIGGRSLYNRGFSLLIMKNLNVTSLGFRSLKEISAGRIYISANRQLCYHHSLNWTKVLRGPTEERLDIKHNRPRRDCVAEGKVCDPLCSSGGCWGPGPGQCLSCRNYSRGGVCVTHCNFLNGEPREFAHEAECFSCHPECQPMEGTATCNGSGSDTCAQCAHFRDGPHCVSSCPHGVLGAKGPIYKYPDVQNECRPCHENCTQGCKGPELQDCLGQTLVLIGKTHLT
# Results are given in words; binding and its absence hold for the method and conditions named. For part of these data: In cells and extracts the contact can be indirect. Some entries that bind do so weakly or less than the wild type.
# How the values were obtained:
# [1] = biological target: T1, Recombinant human PlexinD1 protein (human) (UniProt Q9Y4D7); experiment: co-IP; 10 ug each of recombinant PlexinD1 and ErbB3 in 300 ul IP lysis/wash buffer, 4 C, 4 h; PlexinD1 antibody on Protein G magnetic beads; blots for PlexinD1 and ErbB3; both purified
# T1 sequence: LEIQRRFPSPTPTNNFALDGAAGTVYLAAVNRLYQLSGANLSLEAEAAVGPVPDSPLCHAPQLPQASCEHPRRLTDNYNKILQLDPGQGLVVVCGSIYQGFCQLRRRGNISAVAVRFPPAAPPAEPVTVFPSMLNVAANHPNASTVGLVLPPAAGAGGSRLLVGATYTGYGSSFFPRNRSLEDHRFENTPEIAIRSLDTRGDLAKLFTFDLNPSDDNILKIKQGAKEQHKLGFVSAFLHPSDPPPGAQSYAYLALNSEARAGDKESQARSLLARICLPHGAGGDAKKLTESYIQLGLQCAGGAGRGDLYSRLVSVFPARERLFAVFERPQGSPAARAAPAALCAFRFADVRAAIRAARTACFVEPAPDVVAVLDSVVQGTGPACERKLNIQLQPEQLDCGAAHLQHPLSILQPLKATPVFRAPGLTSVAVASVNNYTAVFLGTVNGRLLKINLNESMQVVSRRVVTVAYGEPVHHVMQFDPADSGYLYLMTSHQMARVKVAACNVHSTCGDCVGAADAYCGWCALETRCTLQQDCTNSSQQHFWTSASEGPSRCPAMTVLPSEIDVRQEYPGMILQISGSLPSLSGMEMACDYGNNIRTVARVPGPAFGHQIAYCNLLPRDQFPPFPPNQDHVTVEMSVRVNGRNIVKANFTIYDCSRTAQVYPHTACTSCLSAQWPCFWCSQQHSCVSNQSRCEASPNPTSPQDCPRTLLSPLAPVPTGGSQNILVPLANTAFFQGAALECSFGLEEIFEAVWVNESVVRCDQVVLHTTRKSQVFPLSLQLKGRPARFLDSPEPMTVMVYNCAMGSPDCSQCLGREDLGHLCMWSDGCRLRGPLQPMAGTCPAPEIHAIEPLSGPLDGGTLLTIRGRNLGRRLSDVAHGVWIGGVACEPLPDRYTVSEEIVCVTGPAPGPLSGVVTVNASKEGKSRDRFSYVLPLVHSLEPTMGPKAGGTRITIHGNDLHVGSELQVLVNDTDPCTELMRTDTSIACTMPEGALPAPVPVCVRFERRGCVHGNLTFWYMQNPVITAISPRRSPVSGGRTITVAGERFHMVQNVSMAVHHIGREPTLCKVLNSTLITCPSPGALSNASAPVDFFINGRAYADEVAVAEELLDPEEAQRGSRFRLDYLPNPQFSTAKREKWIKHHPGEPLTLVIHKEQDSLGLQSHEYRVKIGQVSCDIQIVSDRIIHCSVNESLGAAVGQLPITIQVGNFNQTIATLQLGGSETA
# [2] = biological target: T2, PlexinD1 (human (endogenous in LNCaP, C4-2B^ENZR, 22Rv1)), Q9Y4D7; experiment: proximity ligation; endogenous proteins in fixed cells (LNCaP and C4-2B^ENZR); pairs of primary antibodies, Duolink In Situ Red kit; cytoplasmic fluorescence per cell; for PlexinD1-ErbB3/cMet C4-2B^ENZR cells also treated with recombinant Sema3E/Sema3C (200-500 ng/ml, 4 h) or SEMA3E/SEMA3C siRNA (10 uM, 48 h); settings: remark: other sources report otherwise
# T2 chain: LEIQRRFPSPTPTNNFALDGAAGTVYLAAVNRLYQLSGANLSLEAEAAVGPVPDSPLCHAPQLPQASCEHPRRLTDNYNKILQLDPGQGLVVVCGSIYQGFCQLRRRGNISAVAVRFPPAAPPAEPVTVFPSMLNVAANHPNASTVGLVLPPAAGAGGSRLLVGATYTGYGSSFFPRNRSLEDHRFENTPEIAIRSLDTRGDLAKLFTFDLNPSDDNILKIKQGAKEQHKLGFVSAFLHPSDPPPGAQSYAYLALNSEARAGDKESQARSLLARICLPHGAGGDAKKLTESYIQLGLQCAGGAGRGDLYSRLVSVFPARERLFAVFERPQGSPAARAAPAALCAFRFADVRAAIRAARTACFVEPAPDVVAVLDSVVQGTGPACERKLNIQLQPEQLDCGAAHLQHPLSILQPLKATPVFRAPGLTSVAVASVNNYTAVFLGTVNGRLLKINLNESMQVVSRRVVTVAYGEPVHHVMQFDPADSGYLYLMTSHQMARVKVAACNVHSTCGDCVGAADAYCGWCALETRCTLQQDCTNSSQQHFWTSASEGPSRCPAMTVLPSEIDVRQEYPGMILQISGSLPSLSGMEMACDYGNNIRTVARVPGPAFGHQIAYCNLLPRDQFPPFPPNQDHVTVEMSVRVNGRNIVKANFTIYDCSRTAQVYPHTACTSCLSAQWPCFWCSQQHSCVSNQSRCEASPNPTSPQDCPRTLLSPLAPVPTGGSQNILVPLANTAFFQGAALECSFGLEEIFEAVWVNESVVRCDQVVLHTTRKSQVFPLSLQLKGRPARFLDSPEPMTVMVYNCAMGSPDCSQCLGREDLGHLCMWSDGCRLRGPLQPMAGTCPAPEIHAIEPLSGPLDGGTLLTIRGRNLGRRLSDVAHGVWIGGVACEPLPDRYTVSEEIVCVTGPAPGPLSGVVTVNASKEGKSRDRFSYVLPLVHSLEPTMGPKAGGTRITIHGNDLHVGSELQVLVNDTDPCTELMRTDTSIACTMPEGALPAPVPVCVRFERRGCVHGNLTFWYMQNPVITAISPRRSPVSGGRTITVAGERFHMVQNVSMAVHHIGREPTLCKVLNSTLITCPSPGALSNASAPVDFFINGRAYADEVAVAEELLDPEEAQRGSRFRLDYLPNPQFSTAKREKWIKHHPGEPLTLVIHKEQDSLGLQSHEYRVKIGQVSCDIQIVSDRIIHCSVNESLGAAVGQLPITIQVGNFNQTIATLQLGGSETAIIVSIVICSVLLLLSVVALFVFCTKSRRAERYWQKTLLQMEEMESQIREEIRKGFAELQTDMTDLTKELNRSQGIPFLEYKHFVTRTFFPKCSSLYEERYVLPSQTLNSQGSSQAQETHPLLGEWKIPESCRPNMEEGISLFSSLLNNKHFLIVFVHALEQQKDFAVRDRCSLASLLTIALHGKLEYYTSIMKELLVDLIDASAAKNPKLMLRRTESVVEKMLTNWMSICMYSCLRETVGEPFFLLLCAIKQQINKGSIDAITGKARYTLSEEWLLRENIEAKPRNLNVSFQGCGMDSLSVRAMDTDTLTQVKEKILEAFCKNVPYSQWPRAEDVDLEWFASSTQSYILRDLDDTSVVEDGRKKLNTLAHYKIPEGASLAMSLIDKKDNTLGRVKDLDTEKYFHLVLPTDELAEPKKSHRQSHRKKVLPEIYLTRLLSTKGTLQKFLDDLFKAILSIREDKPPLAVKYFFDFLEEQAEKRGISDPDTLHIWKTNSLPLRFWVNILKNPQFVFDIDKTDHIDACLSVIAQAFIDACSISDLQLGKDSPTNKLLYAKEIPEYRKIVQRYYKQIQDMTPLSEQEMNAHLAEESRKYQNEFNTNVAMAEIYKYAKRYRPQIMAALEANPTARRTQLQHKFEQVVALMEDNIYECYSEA
# [3] = biological target: T2, PlexinD1 (human (endogenous in LNCaP, …)); experiment: proximity ligation; endogenous proteins in fixed 22Rv1 (and C4-2B^ENZR) cells treated with D1SP (1 uM, 2 h) or PBS as vehicle; Duolink In Situ Red kit; cytoplasmic fluorescence per cell; settings: remark: other sources report otherwise
molecule,measurement,setting,value
Recombinant human ErbB3 protein (from UniProt P21860 20-643) (receptor),binding,[1],binds
"Sema3C, Q99985 21-751 (ligand) GSSQPQARVYLTFDELRETKTSEYFSLSHHPLDYRILLMDEDQDRIYVGSKDHILSLNINNISQEALSVFWPASTIKVEECKMAGKDPTHGCGNFVRVIQTFNRTHLYVCGSGAFSPVCTYLNRGRRSEDQVFMIDSKCESGKGRCSFNPNVNTVSVMINEELFSGMYIDFMGTDAAIFRSLTKRNAVRTDQHNSKWLSEPMFVDAHVIPDGTDPNDAKVYFFFKEKLTDNNRSTKQIHSMIARICPNDTGGLRSLVNKWTTFLKARLVCSVTDEDGPETHFDELEDVFLLETDNPRTTLVYGIFTTSSSVFKGSAVCVYHLSDIQTVFNGPFAHKEGPNHQLISYQGRIPYPRPGTCPGGAFTPNMRTTKEFPDDVVTFIRNHPLMYNSIYPIHKRPLIVRIGTDYKYTKIAVDRVNAADGRYHVLFLGTDRGTVQKVVVLPTNNSVSGELILEELEVFKNHAPITTMKISSKKQQLYVSSNEGVSQVSLHRCHIYGTACADCCLARDPYCAWDGHSCSRFYPTGKRRSRRQDVRHGNPLTQCRGFNLKAYRNAAEIVQYGVKNNTTFLECAPKSPQASIKWLLQKDKDRRKEVKLNERIIATSQGLLIRSVQGSDQGLYHCIATENSFKQTIAKINFKVLDSEMVAVVTDKWSPWTWASSVRALPFHPKDIMGAFSHSEMQMINQYCKDTRQQHQQGDESQKMRGDYGKLKALINSRKSRNRRNQLPES",binding,[2],binds
same,binding,[3],binds
